No constants are given. Whether binding was seen depends on the method and setting. Some results given as binding are weak or reduced against the parent protein; the word gives no strength.
Molecular target: anti-CD3 clone UCHT1
Experiment: graph of FIG. 3A; method not named in the legend (Octet per paragraph 88)

CPQYPGSEILWQKWGNKKVCYPRGSKPEDAN [engineered epitope 1]
binding: binds

Reference: patent US20250066478A1
